According to article PMC4664969:
Like-named read-outs stand apart in the source and are kept apart here. These are yes or no findings as the source states them, for the method shown. Binding seen in cells or lysates may run through a third protein. Some entries that bind do so weakly or less than the wild type. Tags and fused reporters may be left off the sequences shown.

By UniProt entry, the sequences of proteins in these tests, tags left out.
UniProt Q8N6T7: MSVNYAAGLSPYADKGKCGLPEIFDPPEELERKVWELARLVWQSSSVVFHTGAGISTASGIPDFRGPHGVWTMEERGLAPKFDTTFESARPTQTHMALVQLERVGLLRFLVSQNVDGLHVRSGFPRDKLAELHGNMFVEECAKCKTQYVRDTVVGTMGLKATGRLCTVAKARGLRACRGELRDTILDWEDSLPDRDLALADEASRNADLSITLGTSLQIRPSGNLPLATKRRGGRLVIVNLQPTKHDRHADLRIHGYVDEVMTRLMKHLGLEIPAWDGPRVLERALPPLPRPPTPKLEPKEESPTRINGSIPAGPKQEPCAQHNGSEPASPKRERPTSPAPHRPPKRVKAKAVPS
UniProt Q9NRC8: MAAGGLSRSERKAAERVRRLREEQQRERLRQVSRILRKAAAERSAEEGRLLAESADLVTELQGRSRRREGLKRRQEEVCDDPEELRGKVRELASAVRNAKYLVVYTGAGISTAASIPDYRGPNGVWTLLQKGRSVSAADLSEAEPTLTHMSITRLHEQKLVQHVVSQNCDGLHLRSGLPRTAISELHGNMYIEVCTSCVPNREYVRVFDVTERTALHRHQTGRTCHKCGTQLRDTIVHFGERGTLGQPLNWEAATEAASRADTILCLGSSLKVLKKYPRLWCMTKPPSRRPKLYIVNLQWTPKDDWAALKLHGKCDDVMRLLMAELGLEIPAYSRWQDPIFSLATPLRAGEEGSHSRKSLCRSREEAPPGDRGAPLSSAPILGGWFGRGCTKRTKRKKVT
UniProt Q09472: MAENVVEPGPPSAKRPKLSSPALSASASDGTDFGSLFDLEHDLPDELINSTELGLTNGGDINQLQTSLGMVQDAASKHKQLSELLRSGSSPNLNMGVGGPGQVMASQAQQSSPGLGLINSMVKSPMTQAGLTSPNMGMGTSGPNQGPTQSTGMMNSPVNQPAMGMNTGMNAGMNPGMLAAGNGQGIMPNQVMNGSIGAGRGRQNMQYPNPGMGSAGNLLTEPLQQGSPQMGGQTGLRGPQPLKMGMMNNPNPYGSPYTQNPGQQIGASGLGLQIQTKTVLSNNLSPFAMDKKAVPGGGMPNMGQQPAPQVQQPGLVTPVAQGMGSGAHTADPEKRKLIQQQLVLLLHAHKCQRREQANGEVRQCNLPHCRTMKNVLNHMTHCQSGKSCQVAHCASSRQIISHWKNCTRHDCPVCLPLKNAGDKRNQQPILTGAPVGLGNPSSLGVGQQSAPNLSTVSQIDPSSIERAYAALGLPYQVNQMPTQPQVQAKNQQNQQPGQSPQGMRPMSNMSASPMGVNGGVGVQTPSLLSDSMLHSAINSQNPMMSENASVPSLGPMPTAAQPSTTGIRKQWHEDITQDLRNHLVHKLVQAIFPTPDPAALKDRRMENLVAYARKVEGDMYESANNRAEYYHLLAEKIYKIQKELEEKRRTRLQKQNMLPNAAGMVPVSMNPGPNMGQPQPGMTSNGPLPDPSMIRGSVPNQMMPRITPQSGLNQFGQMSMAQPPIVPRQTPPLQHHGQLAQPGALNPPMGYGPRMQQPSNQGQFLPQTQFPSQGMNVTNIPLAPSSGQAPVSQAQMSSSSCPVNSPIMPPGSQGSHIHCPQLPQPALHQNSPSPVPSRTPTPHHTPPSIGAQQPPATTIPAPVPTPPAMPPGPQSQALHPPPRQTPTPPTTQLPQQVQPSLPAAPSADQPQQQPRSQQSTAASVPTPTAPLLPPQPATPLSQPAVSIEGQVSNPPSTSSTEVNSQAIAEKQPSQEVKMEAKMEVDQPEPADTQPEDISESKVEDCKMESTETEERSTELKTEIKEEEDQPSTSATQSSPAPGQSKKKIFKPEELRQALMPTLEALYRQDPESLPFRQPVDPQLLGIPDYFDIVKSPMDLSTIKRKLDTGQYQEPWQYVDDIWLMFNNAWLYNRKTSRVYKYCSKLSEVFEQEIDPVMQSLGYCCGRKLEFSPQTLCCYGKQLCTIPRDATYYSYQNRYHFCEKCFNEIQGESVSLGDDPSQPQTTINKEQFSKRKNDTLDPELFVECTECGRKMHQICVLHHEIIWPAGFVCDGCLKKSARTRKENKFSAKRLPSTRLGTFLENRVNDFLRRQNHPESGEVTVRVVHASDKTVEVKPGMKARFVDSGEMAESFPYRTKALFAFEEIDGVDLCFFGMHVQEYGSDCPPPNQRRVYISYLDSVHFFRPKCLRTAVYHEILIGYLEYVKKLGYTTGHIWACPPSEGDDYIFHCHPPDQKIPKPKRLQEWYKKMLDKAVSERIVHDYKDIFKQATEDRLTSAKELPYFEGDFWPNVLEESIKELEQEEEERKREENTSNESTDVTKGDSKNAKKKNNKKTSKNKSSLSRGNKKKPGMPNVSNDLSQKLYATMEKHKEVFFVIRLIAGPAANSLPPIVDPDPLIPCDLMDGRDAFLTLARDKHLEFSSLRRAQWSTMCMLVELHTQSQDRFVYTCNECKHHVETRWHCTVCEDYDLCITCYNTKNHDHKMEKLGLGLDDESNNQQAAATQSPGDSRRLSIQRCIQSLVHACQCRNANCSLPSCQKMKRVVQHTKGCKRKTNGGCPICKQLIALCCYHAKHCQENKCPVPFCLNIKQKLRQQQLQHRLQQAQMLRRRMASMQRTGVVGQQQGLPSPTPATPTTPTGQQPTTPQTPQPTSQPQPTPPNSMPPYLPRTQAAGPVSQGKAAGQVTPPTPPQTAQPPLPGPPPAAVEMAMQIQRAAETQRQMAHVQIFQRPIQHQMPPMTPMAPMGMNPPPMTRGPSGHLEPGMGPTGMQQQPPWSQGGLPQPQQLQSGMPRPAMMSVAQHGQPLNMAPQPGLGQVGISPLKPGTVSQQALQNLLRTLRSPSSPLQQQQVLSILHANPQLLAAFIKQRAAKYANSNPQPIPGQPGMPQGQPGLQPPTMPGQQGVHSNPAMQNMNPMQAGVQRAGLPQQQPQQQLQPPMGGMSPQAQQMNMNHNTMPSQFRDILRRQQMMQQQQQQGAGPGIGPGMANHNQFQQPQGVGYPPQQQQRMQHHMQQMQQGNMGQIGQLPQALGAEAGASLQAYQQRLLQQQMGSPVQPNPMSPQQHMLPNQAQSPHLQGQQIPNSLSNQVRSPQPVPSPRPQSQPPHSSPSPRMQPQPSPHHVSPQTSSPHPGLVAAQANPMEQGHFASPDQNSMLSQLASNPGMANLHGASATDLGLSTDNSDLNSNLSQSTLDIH

T1: Myc-tagged glucokinase regulatory protein (GKRP), wild type (human) (UniProt Q14397)
T1 sequence: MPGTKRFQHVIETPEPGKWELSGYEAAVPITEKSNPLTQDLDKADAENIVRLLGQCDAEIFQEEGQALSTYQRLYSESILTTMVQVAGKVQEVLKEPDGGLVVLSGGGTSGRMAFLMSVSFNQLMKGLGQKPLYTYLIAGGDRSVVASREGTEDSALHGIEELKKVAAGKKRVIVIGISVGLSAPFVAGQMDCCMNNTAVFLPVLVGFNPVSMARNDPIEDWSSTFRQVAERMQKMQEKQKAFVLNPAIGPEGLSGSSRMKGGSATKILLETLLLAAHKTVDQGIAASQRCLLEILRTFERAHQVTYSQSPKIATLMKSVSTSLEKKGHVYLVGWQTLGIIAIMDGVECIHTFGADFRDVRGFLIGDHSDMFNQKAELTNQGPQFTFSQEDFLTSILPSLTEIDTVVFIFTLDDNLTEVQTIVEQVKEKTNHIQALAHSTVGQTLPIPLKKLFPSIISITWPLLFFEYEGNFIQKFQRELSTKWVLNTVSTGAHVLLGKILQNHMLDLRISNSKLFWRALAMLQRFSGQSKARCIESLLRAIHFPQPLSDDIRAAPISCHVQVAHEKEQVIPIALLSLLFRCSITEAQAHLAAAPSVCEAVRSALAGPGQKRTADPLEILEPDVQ


Tests used:
[1] = target: T1, Myc-tagged glucokinase regulatory protein (GKRP), wild type (human); experiment: co-IP; HeLa cells cotransfected with the expression plasmids, lysed after 36 h (20 mM HEPES pH 7.4, 0.5% NP-40, 150 mM NaCl, 0.25% deoxycholate, 1 mM EDTA, TSA, NAM); 1 ug antibody overnight, protein G agarose 2 h at 4 C; immunoblot (GK-GKRP: IP anti-Myc or anti-V5, blot anti-His or anti-Myc)
[2] = target: T1, Myc-tagged glucokinase regulatory protein (GKRP), wild type (human); experiment: as above; remark: listed apart in the source

binding [1]	binding [2]	Molecule
binds	–	FLAG-tagged SIRT6 (from UniProt Q8N6T7 1-355) (enzyme)
binds	–	FLAG-tagged SIRT7 (from UniProt Q9NRC8 1-400) (enzyme)
binds	–	p300 (EP300) (from UniProt Q09472 1-2414) (enzyme)
–	binds	Flag-tagged SIRT2 (enzyme, UniProt Q8IXJ6 1-389) MAEPDPSHPLETQAGKVQEAQDSDSDSEGGAAGGEADMDFLRNLFSQTLSLGSQKERLLDELTLEGVARYMQSERCRRVICLVGAGISTSAGIPDFRSPSTGLYDNLEKYHLPYPEAIFEISYFKKHPEPFFALAKELYPGQFKPTICHYFMRLLKDKGLLLRCYTQNIDTLERIAGLEQEDLVEAHGTFYTSHCVSASCRHEYPLSWMKEKIFSEVTPKCEDCQSLVKPDIVFFGESLPARFFSCMQSDFLKVDLLLVMGTSLQVQPFASLISKAPLSTPRLLINKEKAGQSDPFLGMIMGLGGGMDFDSKKAYRDVAWLGECDQGCLALAELLGWKKELEDLVRREHASIDAQSGAGVPNPSTSASPKKSPPPAKDEARTTEREKPQ
–	binds	FLAG-tagged SIRT4 (enzyme, UniProt Q9Y6E7 29-314) IGLFVPASPPLDPEKVKELQRFITLSKRLLVMTGAGISTESGIPDYRSEKVGLYARTDRRPIQHGDFVRSAPIRQRYWARNFVGWPQFSSHQPNPAHWALSTWEKLGKLYWLVTQNVDALHTKAGSRRLTELHGCMDRVLCLDCGEQTPRGVLQERFQVLNPTWSAEAHGLAPDGDVFLSEEQVRSFQVPTCVQCGGHLKPDVVFFGDTVNPDKVDFVHKRVKEADSLLVVGSSLQVYSGYRFILTAWEKKLPIAILNIGPTRSDDLACLKLNSRCGELLPLIDPC
